## Melanoma cell counts after drug treatment

Source: doi:10.1371/journal.pone.0140310, primary screening data, rounded.

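Human melanoma cells were exposed to two drugs together for 72 h in 1,536-well plates and read by automated microscopy after fixing and staining. The read-out is cell count (nuclei) in % of the DMSO control; lower values mean stronger growth inhibition or killing. Concentrations were fixed for each drug; these are the higher of two levels. These are primary screening values without error estimates.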 An unselected part of the screen is shown.

Drug key:
GW0742 (10 µM): Cc1cc(SCc2sc(-c3ccc(C(F)(F)F)c(F)c3)nc2C)ccc1OCC(=O)O
gemcitabine (0.002 µM): Nc1ccn([C@@H]2O[C@H](CO)[C@@H](O)C2(F)F)c(=O)n1
dovitinib (0.5 µM): CN1CCN(c2ccc3nc(-c4c(N)c5c(F)cccc5[nH]c4=O)[nH]c3c2)CC1
VX-702 (2 µM): NC(=O)c1ccc(N(C(N)=O)c2c(F)cccc2F)nc1-c1ccc(F)cc1F
vismodegib (5 µM): CS(=O)(=O)c1ccc(C(=O)Nc2ccc(Cl)c(-c3ccccn3)c2)c(Cl)c1
bexarotene (10 µM): C=C(c1ccc(C(=O)O)cc1)c1cc2c(cc1C)C(C)(C)CCC2(C)C
OSI-906 (2 µM): C[C@]1(O)C[C@@H](c2nc(-c3ccc4ccc(-c5ccccc5)nc4c3)c3c(N)nccn32)C1
GW9662 (10 µM): O=C(Nc1ccccc1)c1cc([N+](=O)[O-])ccc1Cl
KU-0063794 (0.1 µM): COc1ccc(-c2ccc3c(N4CCOCC4)nc(N4C[C@@H](C)O[C@@H](C)C4)nc3n2)cc1CO
SNS-314 (0.004 µM): O=C(Nc1cccc(Cl)c1)Nc1ncc(CCNc2ncnc3ccsc23)s1
CP-690550 (5 µM): C[C@@H]1CCN(C(=O)CC#N)C[C@@H]1N(C)c1ncnc2[nH]ccc12

| Combination | COLO 792 | WM451Lu | COLO 829 | WM3619 | COLO 800 | C32 |
|---|---|---|---|---|---|---|
| bexarotene + VX-702 | 108 | 92.5 | 72.5 | 94.0 | 139 | 112 |
| bexarotene + gemcitabine | 56.9 | 39.3 | 29.6 | 38.2 | 47.8 | 87.7 |
| GW9662 + SNS-314 | 33.5 | 46.7 | 49.6 | 39.1 | 21.9 | 65.0 |
| vismodegib + GW0742 | 106 | 112 | 87.7 | 88.9 | 98.8 | 85.8 |
| VX-702 + GW0742 | 86.5 | 93.9 | 85.9 | 88.3 | 110 | 88.4 |
| GW0742 + dovitinib | 104 | 82.1 | 50.5 | 88.1 | 99.0 | 111 |
| KU-0063794 + bexarotene | 93.7 | 100 | 63.5 | 61.6 | 91.2 | 97.8 |
| KU-0063794 + GW9662 | 86.2 | 81.1 | 54.2 | 50.2 | 59.9 | 80.7 |
| vismodegib + gemcitabine | 92.6 | 59.5 | 51.1 | 60.8 | 33.1 | 137 |
| dovitinib + CP-690550 | 48.8 | 96.6 | 59.7 | 72.2 | 59.2 | 81.8 |
| dovitinib + SNS-314 | 40.5 | 88.7 | 71.4 | 86.5 | 47.0 | 86.0 |
| GW0742 + KU-0063794 | 83.3 | 92.7 | 102 | 79.7 | 95.0 | 119 |
| CP-690550 + gemcitabine | 87.6 | 77.3 | 64.4 | 46.8 | 44.4 | 99.1 |
| OSI-906 + CP-690550 | 97.0 | 76.2 | 111 | 116 | 29.8 | 107 |
| SNS-314 + OSI-906 | 39.9 | 49.6 | 64.6 | 72.2 | 29.8 | 75.5 |
| VX-702 + gemcitabine | 53.9 | 45.2 | 36.6 | 32.5 | 26.4 | 97.6 |
| SNS-314 + vismodegib | 57.4 | 67.8 | 97.5 | 137 | 76.6 | 63.5 |
| KU-0063794 + CP-690550 | 75.7 | 99.9 | 89.0 | 56.0 | 68.6 | 93.5 |
| GW0742 + SNS-314 | 54.1 | 50.8 | 87.9 | 82.2 | 27.3 | 88.6 |
| gemcitabine + dovitinib | 35.1 | 39.2 | 52.0 | 39.0 | 20.0 | 62.4 |
| bexarotene + GW9662 | 131 | 76.0 | 38.3 | 64.0 | 76.4 | 106 |
| bexarotene + vismodegib | 72.8 | 63.6 | 54.9 | 80.0 | 109 | 85.5 |
| vismodegib + OSI-906 | 116 | 91.8 | 121 | 93.9 | 51.7 | 105 |
| gemcitabine + SNS-314 | 69.7 | 40.7 | 53.8 | 51.1 | 23.1 | 66.8 |
| vismodegib + VX-702 | 120 | 132 | 100 | 101 | 157 | 106 |
| dovitinib + GW9662 | 66.9 | 98.9 | 49.0 | 35.2 | 62.6 | 82.8 |
| GW9662 + GW0742 | 109 | 114 | 51.9 | 57.2 | 56.8 | 98.5 |
| KU-0063794 + gemcitabine | 64.1 | 44.4 | 40.6 | 25.9 | 24.2 | 89.2 |
| OSI-906 + GW0742 | 132 | 87.5 | 77.4 | 104 | 49.2 | 103 |
| KU-0063794 + vismodegib | 84.2 | 105 | 67.1 | 73.6 | 115 | 114 |
| OSI-906 + KU-0063794 | 81.8 | 84.4 | 67.0 | 75.5 | 43.3 | 81.7 |
| dovitinib + vismodegib | 78.5 | 83.2 | 59.8 | 53.3 | 44.8 | 85.3 |
| CP-690550 + SNS-314 | 61.3 | 42.4 | 79.5 | 90.3 | 31.0 | 82.7 |
| KU-0063794 + dovitinib | 82.2 | 105 | 84.1 | 50.4 | 116 | 86.1 |
| vismodegib + CP-690550 | 84.0 | 99.1 | 105 | 94.1 | 82.3 | 102 |
| gemcitabine + OSI-906 | 58.7 | 45.8 | 59.8 | 74.6 | 31.3 | 87.5 |

The last 4 entries again:

Combination,COLO 792,WM451Lu,COLO 829,WM3619,COLO 800,C32
CP-690550 + SNS-314,61.3,42.4,79.5,90.3,31.0,82.7
KU-0063794 + dovitinib,82.2,105,84.1,50.4,116,86.1
vismodegib + CP-690550,84.0,99.1,105,94.1,82.3,102
gemcitabine + OSI-906,58.7,45.8,59.8,74.6,31.3,87.5